Measurements reported in patent US8076285B2 (Aicuris GmbH & Co. KG, priority 2006, dated 2011).

Assay: general procedure: Fmoc solid-phase peptide synthesis; 2-chlorotrityl chloride resin (Iris Biotech), 0.85 mmol/g; TBTU/DIEA
Conditions: for cyclisation yield: cyclisation step
[1] = coupling step, trifluoroacetate
[2] = late stage modification step, trifluoroacetate

## Benzyl [(3R)-N^2-(tert-Butoxycarbonyl)-3-hydroxy-L-leucyl]-L-leucyl-D-arginyl-L-isoleucyl-L-allothreonyl-glycyl-L-threonyl-L-serinate trifluoroacetate
[1]
  step yield: 20% of theory

## [(3R)-N^2-(Benzyloxycarbonyl)-3-{(tert-butoxycarbonyl)amino}-L-phenylalanyl]-[(3R)-3-hydroxy-L-leucyl]-L-leucyl-D-arginyl-L-isoleucyl-L-allothreonyl-glycyl-glycyl-L-serine trifluoroacetate
[1]
  final purity (method not given): 60% pure
  step yield: 84% of theory

## N^2.1-(Benzyloxycarbonyl)-[(3R)-3-amino-4-(dimethylamino)-L-phenylalanyl]-[(3R)-3-hydroxy-L-leucyl]-L-leucyl-D-arginyl-L-isoleucyl-L-allothreonyl-glycyl-[(3S)-3-hydro-xy-L-asparaginyl]-L-serine C^1.9-N^3.1-lactam bistrifluoroacetate
trifluoroacetate
  cyclisation yield: 52% of theory

## [N^2-(tert.-Butoxycarbonyl)-3-tert-butyl-D-alanyl]-[3-tert-butyl-L-alanyl]-[(3R)-3-amino-L-phenylalanyl]-[(3R)-3-hydroxy-L-leucyl]-L-leucyl-D-arginyl-L-isoleucyl-L-allothreonyl-glycyl-L-alanyl-L-serine C^1.11-N^3.3-lactam hydrochloride
Coupling step, hydrochloride
  step yield: 98% of theory

## [(3R)-N^2-(Benzyloxycarbonyl)-3-amino-L-phenylalanyl]-[(3R)-3-hydroxy-L-leucyl]-L-leucyl-D-arginyl-L-isoleucyl-L-allothreonyl-glycyl-L-seryl-L-serine C^1.9-N^3.1-lactam Trifluoroacetate
trifluoroacetate
  cyclisation yield: 43% of theory

## [N^2-(tert.-Butoxycarbonyl)-3-tert-butyl-D-alanyl]-[(3R)-3-amino-L-phenylalanyl]-[(3R)-3-hydroxy-L-leucyl]-L-leucyl-D-arginyl-L-isoleucyl-L-allothreonyl-glycyl-L-allothreonyl-L-serinate C^1.11-N^3.3-lactam hydrochloride
Coupling step, hydrochloride
  purity (crude or final not stated): purity 77%
  step yield: 69% of theory

## [(3R)-N^2-(tert-butoxycarbonyl)-3-hydroxy-L-leucyl]-L-leucyl-D-arginyl-L-isoleucyl-L-allothreonyl-glycyl-[3-(3-pyridyl)-L-alanyl]-L-serine bistrifluoroacetate
[2]
  step yield: 88% of theory

## {(3R)-N^2-[(9H-Fluoren-9-ylmethoxy)carbonyl]-3-amino-L-phenylalanyl}-[(3R)-3-hydroxy-L-leucyl]-L-leucyl-(N^6-benzyloxycarbonyl-D-lysyl)-L-isoleucyl-L-allothreonyl-glycyl-L-seryl L-serine bistrifluoroacetate
[2]
  step yield: 90% of theory

## [(3R)-N^2-(tert-Butoxycarbonyl)-3-hydroxy-L-leucyl]-L-leucyl-D-arginyl-L-isoleucyl-L-allothreonyl-glycyl-[(3S)-3-hydroxy-L-asparaginyl]-L-serine trifluoroacetate
Late stage modification step, trifluoroacetate, run 1
  step yield: 70% of theory
Late stage modification step, trifluoroacetate, run 2
  step yield: 76% of theory

## [3-tert-Butyl-D-alanyl]-[3-tert-butyl-L-alanyl]-[(3R)-3-amino-L-phenylalanyl]-[(3R)-3-hydroxy-L-leucyl]-L-leucyl-D-arginyl-L-isoleucyl-L-allothreonyl-glycyl-L-asparaginyl-L-serine-C^1.11-N^3.3-lactam-bis-trifluoroacetate
[2]
  step yield: 3.5% of theory

## {(3R)-N^2-[(9H-Fluoren-9-ylmethoxy)carbonyl]-3-[(tert-butoxycarbonyl)amino]-L-phenylalanyl}-[(3R)-3-hydroxy-L-leucyl]-L-leucyl-(N^6-benzyloxycarbonyl-D-lysyl)-L-isoleucyl-L-allothreonyl-glycyl-L-seryl-L-serine trifluoroacetate
[1]
  step yield: 21% of theory

## [3-tert-Butyl-D-alanyl]-[3-tert-Butyl-L-alanyl]-[(3R)-3-amino-L-phenylalanyl]-[(3R)-3-hydroxy-L-leucyl]-L-leucyl-D-arginyl-L-isoleucyl-L-allothreonyl-glycyl-L-seryl-L-serine C^1.11-N^3.3-lactam bistrifluoroacetate
[2]
  step yield: 53% of theory

## [(3R)-N^2-(Benzyloxycarbonyl)-3-amino-L-phenylalanyl]-[(3R)-3-hydroxy-L-leucyl]-L-leucyl-D-arginyl-L-isoleucyl-L-seryl-glycyl-L-seryl-L-serine C^1.9-N^3.1-lactam trifluoroacetate
From 363A, trifluoroacetate
  cyclisation yield: 81% of theory

## [(3R)-N^2-(Benzyloxycarbonyl)-3-amino-L-leucyl]-[(3R)-3-hydroxy-L-leucyl]-L-leucyl-D-arginyl-L-isoleucyl-L-allothreonyl-glycyl-[(3R)-3-hydroxy-L-asparaginyl]-L-serine bistrifluoroacetate
[2]
  crude purity (method not given): 96% pure

## (3R)-N^2-[(9H-Fluoren-9-ylmethoxy)carbonyl]-3-[(tert-butoxycarbonyl)amino]-L-phenylalanyl 1-[(3R)-3-hydroxy-L-leucyl]-L-leucyl-(N^5-benzyloxycarbonyl-D-orrnthyl)-L-isoleucyl-L-allothreonyl-glycyl-L-seryl-L-serine trifluoroacetate
[1]
  final purity (method not given): 33% pure
  step yield: 17% of theory

## [(3R)-3-Hydroxy-L-leucyl]-L-leucyl-D-arginyl-[3-trimethylsilyl-L-alanlyl]-L-allothreonyl-glycyl-L-seryl-L-serine bistrifluoroacetate
[2]
  final purity (method not given): 64% pure

## [N^2-(Benzyloxycarbonyl)-3-tert-butyl-D-alanyl]-[3-tert-butyl-L-alanyl]-{(3R)-3-[(tert-butoxycarbonyl)amino]-L-phenylalanyl}-{(3R)-3-hydroxy-L-leucyl}-L-leucyl-D-arginyl-L-isoleucyl-L-allothreonyl-glycyl-L-asparaginyl-L-serine trifluoroacetate
[1]
  step yield: 86.7% of theory

## [3-tert-Butyl-D-alanyl]-[3-tert-butyl-L-alanyl]-[(3R)-3-amino-L-phenylalanyl]-[(3R)-3-hydroxy-L-leucyl]-L-leucyl-D-arginyl-L-isoleucyl-L-allothreonyl-glycyl-glycyl-L-serine C^1.11-N^3.3-lactam
Late stage modification step, from compound 455A, trifluoroacetate
  step yield: 7% of theory

## [3-tert-Butyl-D-alanyl]-[3-tert-butyl-L-alanyl]-[(3R)-3-amino-L-phenylalanyl]-[(3R)-3-hydroxy-L-leucyl]-L-leucyl-D-omityl-L-isoleucyl-L-allothreonyl-glycyl-L-asparaginyl-L-serine C^1.11-N^3.3-lactam bistrifluoroacetate
[2]
  step yield: 91.9% of theory

## [(3R)-N^2-(Benzyloxycarbonyl)-3-amino-L-phenylalanyl]-[(3R)-3-hydroxy-L-leucyl]-L-leucyl-D-arginyl-L-isoleucyl-L-allothreonyl-glycyl-L-alanyl-L-serine C^1.9-N^3.1-lactam trifluoroacetate
trifluoroacetate
  cyclisation yield: 77% of theory

## {(3R)-N^2-[(9H-Fluoren-9-ylmethoxy)carbonyl]-3-[(tert-butoxycarbonyl)amino]-L-phenylalanyl}-[(3R)-3-hydroxy-L-leucyl]-L-leucyl-D-arginyl-L-isoleucyl-L-allothreonyl-glycyl-[(2S)-2-amino-4-benzyloxycarbonylaminobutyryl]-L-serine trifluoroacetate
[1]
  step yield: 27% of theory
